Laboratory results from PubChem BioAssay AID493014 (National Center for Advancing Translational Sciences (NCATS), 2011).
The list shows a part of the results. These are further read-outs of the screen, such as a control signal, another cell line or another target. No call is given for them. Most of these compounds were active or inconclusive in the main read-out, so they are no random draw. Words in brackets tell the shape of the fitted curve; partial curves, single points and poor fits give uncertain potencies.

Assay: qHTS Assay to Find Inhibitors of Chronic Active B-Cell Receptor Signaling
Settings: ABC-DLBCL IkBa-CBG/CBR reporter, luminescence ratio (green luciferase fused to IkBa over red control in TMD8 lymphoma cells), 4 h
In short: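 TMD8 ABC-DLBCL cells carrying doxycycline-inducible green luciferase fused to IkappaBalpha plus unfused red luciferase were exposed to compounds (up to 46 uM) for 4 hrs at 37C. Activity came from the overlap-corrected green/red luminescence ratio.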

[1] = measured here: CBR red luminescence, cell number
[2] = measured here: IkBa-CBG green luminescence

| SMILES | AC50 [1] | AC50 [2] |
| --- | --- | --- |
| CCn1c(C)cs/c1=N\C(=S)Nc1ccccc1C | 13 µM [rising, partial curve, poor fit] |  |
| Cc1ccc(S(=O)(=O)NCC(=O)N2CCC(C)CC2)cc1 | 0.517 µM [falling, full curve, poor fit] |  |
| O=C(N/N=C/c1cccs1)c1cccnc1 | 35.5 µM [falling, single point] |  |
| CCc1ccc2oc(=O)cc(CN3CCOCC3)c2c1 | 2.91 µM [rising, partial curve, poor fit] |  |
| CCCCCCSc1nc2c(c(=O)[nH]c(=O)n2C)n1C | 32.6 µM [rising, single point] |  |
| COc1ccc(CNC(=O)CSCc2c(F)cccc2Cl)cc1 | 7.08 µM [rising, full curve, poor fit] |  |
| COc1ccc(NC(=O)c2ccco2)c([N+](=O)[O-])c1 | 29.1 µM [rising, partial curve, poor fit] | 18.4 µM [falling, single point] |
| COC(=O)C1CCN(Cc2cn(-c3ccccc3)nc2-c2ccc3c(c2)OCO3)CC1 | 35.5 µM [falling, partial curve, poor fit] |  |
| CC1CCN(c2c(NCc3ccc(C(=O)NCc4ccco4)cc3)c(=O)c2=O)CC1 | 3.26 µM [rising, single point] |  |
| CN1C(=O)NC(NC(=O)c2cccs2)(C(F)(F)F)C1=O (configuration not stated) | 2.06 µM [falling, partial curve, poor fit] |  |
| NS(=O)(=O)c1ccc(CCNC(=O)c2ccccc2OCc2ccc(F)cc2)cc1 | 35.5 µM [falling, partial curve, poor fit] |  |
| CCOC(=O)c1ccc(NC(=O)C2C3CCCCC32)cc1 (configuration not stated) | 2.51 µM [rising, partial curve, poor fit] |  |
| Cn1c(=O)c(=O)n(C)c2cc(S(=O)(=O)N3CCN(c4cccc(C(F)(F)F)c4)CC3)ccc21 | 10.3 µM [rising, partial curve, poor fit] |  |
| CC(C)C(=O)C1=Cc2cccc([N+](=O)[O-])c2OC1N1CCOCC1 (configuration not stated) | 18.4 µM [falling, single point] |  |
| COc1cccc(F)c1C(C[N+](=O)[O-])c1c(N)n(C)c(=O)n(C)c1=O (configuration not stated) | 5.01 µM [falling, full curve] |  |
| Cc1ccc(Oc2cc(C)nc(-c3ccccc3O)n2)cc1 | 12.6 µM [rising, single point] |  |
| CC(=O)N1c2c(cc(Br)cc2S(=O)(=O)N2CCN(c3ccccn3)CC2)CC1C (configuration not stated) | 0.0651 µM [rising, full curve, poor fit] |  |
| CCC(C)c1ccc(NC(=O)Nc2cccnc2)cc1 (configuration not stated) | 11.2 µM [rising, partial curve] |  |
| Cc1cccc(-c2c3c(=O)n(C)c(=O)n(C)c3cn2C(C)C)c1 | 1.03 µM [rising, full curve, poor fit] |  |
| CC(Oc1ccc(Cl)cc1Cl)C(=O)OCn1nnc2ccccc2c1=O (configuration not stated) | 29.1 µM [rising, single point] |  |

Taken from the listing (3 entries):

| SMILES | AC50 [1] | AC50 [2] |
| --- | --- | --- |
| CCCCCCSc1nc2c(c(=O)[nH]c(=O)n2C)n1C | 32.6 µM [rising, single point] |  |
| COc1ccc(CNC(=O)CSCc2c(F)cccc2Cl)cc1 | 7.08 µM [rising, full curve, poor fit] |  |
| COc1ccc(NC(=O)c2ccco2)c([N+](=O)[O-])c1 | 29.1 µM [rising, partial curve, poor fit] | 18.4 µM [falling, single point] |

Next part

| SMILES | AC50 [1] | AC50 [2] |
| --- | --- | --- |
| O=C(O)CCCCCN1C(=O)/C(=C\c2cn(-c3ccccc3)nc2-c2cccs2)SC1=S | 0.794 µM [falling, full curve] |  |
| CCOC(=O)C1=C(c2ccccc2)N=c2s/c(=C\c3ccco3)c(=O)n2C1c1cccs1 (configuration not stated) | 8.91 µM [falling, partial curve, poor fit] |  |
| COc1cccc(N(C(=O)CCl)C(C(=O)NCCc2ccccc2)c2cccs2)c1 (configuration not stated) | 9.2 µM [falling, partial curve] |  |
| Cc1ccc(SCCC(=O)Nc2nccs2)cc1 | 14.1 µM [falling, single point] | 14.1 µM [rising, partial curve, poor fit] |
| CN1C[C@@H]2C(c3ccc(Cl)nc3)C3(c4ccccc4)CC2(C3)[C@H]1c1ccccc1 (some centres not stated) | 22.4 µM [falling, single point] |  |
| Cc1nn(C)cc1CN1CCCC(C(=O)c2ccc(-c3ccccc3)cc2)C1 (configuration not stated) | 6.31 µM [rising, single point] |  |
| Cc1cc2c(cc1S(=O)(=O)N(C)c1ccccc1)n(C)c(=O)n2C | 17.8 µM [rising, single point] |  |
| O=C(N/N=C/c1ccc([N+](=O)[O-])o1)c1cc(-c2cccc(Br)c2)nc2ccccc12 | 0.126 µM [falling, partial curve, poor fit] |  |
| Cc1csc(SC(C)C(=O)NC2CCCCC2C)n1 (configuration not stated) | 0.517 µM [rising, full curve, poor fit] |  |
| Cc1c(C(=O)Nc2c(F)cccc2F)sc2ncnc(N3CCN(c4ccccc4)CC3)c12 | 35.5 µM [falling, single point] |  |
| CS(=O)(=O)c1ccccc1-c1csc(N2CCC(C(N)=O)CC2)n1 | 0.58 µM [rising, full curve, poor fit] |  |
| O=c1c(C(c2ccc(O)cc2)c2c(O)nc3n(c2=O)CCCS3)c(O)nc2n1CCCS2 | 17.8 µM [falling, single point] |  |
| CN(C)S(=O)(=O)c1cccc(NC(=S)N/N=C/c2ccco2)c1 | 35.5 µM [falling, single point] |  |
| Cc1ccc(Nc2cc(C(=O)NC3CCCC3)c3ccccc3n2)cc1C | 35.5 µM [rising, single point] |  |
| Cc1noc(NS(=O)(=O)c2ccc(NC(=O)NC(C)(C(F)(F)F)C(F)(F)F)cc2)c1C | 4.47 µM [rising, single point] |  |
| C=CC[C@H](CC(=O)NCCO)C(=O)NCCOC(=O)[C@@H](CC=C)Cc1ccc(F)cc1 | 16.4 µM [rising, single point] |  |
| Cc1cc(C(F)(F)F)nn1Cc1n[nH]c(=S)n1-c1ccc(Cl)cc1 | 25.9 µM [rising, single point] |  |
| Cc1noc(C)c1COc1ccc(C(=O)NNC(=O)c2ccccc2F)cc1 | 0.0058 µM [rising, full curve, poor fit] |  |
| CCN1c2ccccc2NC2N=C(OC)C(c3ccccc3)C21 (configuration not stated) | 29.1 µM [falling, single point] |  |
| COc1cc(Nc2nc(-c3ccccc3)c3cc(C)ccc3n2)cc(OC)c1OC | 0.112 µM [falling, full curve, poor fit] |  |
